Measurements published in patent US6632616B2, “Compounds that selectively bind to expanded polyglutamine repeat domains and methods of use thereof” (Duke University, priority 2000, dated 2003).
Some results were stated once for a whole list of compounds, not compound by compound.

System: thio-Q62
Experiment: Thioredoxin-polyglutamine turbidity (aggregation) assay, thio-Q62
Type: biochemical
Conditions: peptide at 25 μM; turbidity at 405 nm
Protocol: Turbidity assays were performed in 200 μl reactions consisting of thioredoxin-polyglutamine in PBS in 96-well, low protein binding plates. Plates were incubated at 4° C. and turbidity measured at 405 nm on a Thermo Max plate reader (Molecular Devices).
Peptides were synthesized at the Howard Hughes Medical Institute peptide sequencing facility at Duke University with an acetylated amino terminus and protection of tryptophan with BOC during synthesis. Identical results were obtained with peptides obtained from Bio-Synthesis Inc. (Lewisville, Tex.). Stock solutions of peptides were prepared fresh daily by dissolving in dimethyl sulfoxide at 2.5 mM and incubated with thioredoxin-polyglutamine protein at 0.25-25 μM.
To monitor thioredoxin-polyglutamine protein aggregation a turbidometric assay was developed, similar to the assays commonly used to study microtubule assembly and β-amyloid aggregation (Jarrett, J. T. et al. (1993) Biochem 32, 4693-4697; Sloboda, R. D. et al. (1976) Biochem 15, 4497-4505). Solutions of thio-Q62 and 81 protein increased turbidity in a polyglutamine length-, time- and concentration-dependent manner (FIG. 1B and C; Time dependence of aggregation of thioredoxin-polyglutamine with 81 glutamines not shown). […]

Row | Sequence | inhibition of thio-Q62 aggregation
1 | WPIWSKGNDWF [SCR, reference compound] | less than 10%
2 | LSLMEFGCRGA [RAN, computer-generated random 11 amino acid peptide, reference compound] | less than 10%
